PMC10191625
Results are given in words; binding and its absence hold for the method and conditions named. Binding seen in cells or lysates may run through a third protein. Binding can be weak; no strength is given. Sequences can lack the tags named with a protein.

Target: Flag.ADA-2 (Neurospora crassa)
Experiment: co-IP; Flag.ADA-2 co-expressed with the Myc-tagged partner in the WT strain; immunoprecipitation with Flag antibody, GammaBind G Sepharose, 2 mg protein extract; cultures in constant light, with or without 3 mM 3-AT; blot for Myc

binding: binds
B1: Myc.CPC-1 (protein, UniProt P11115 1-270)
chain: MFSELDLLDFATFDGGATTEAAFASPANQTYDLSSSVPSSVSNMGTVSPQELLLHEPYLSAPSSTALTALTSPSLFDGSPDFDTFDISPNFGHSDLENPDTWFSLFPDATPLPQAQAQVQTQPQTQTQTEQQTQPLPELVQSVQPTVQPTVEQTVHSVEASPATPSEDLEVLSPGSGHQRRKSSVSPPSGRHSSVAGVGSRRRDKPLPPIIVEDPSDVVAMKRARNTLAARKSRERKAQRLEELEAKIEELIAERDRWKNLALAHGASTE
